From PubChem BioAssay AID2685 (National Center for Advancing Translational Sciences (NCATS), 2010)
This is one part of the list. Further columns of the screen follow, without active or inactive calls. Most of these compounds were active or inconclusive in the main read-out, so they are no random draw. Words in brackets tell the shape of the fitted curve; partial curves, single points and poor fits give uncertain potencies.

Assay: qHTS Assay for Lipid Storage Modulators in Drosophila S3 Cells;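 for cell number change: cells counted by Cell Tracker Red CMTPX staining in the red channel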
Settings: BODIPY lipid droplet fluorescence, 18-24 h; for cell number change: measured here: cell count max response, cells fed with added oleic acid
Procedure, shortened: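 Drosophila S3 cells got compounds at several concentrations plus oleic acid (400 uM solution). Laser-scanning cytometry with 488 nm excitation read lipid droplets at 500-530 nm and cells at 575-640 nm. Percent activity was relative to 20 uM Triacsin C.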

[1] = measured here: lipid fluorescence (Fed channel) AC50, cells fed with added oleic acid
[2] = measured here: cell number channel AC50, cells fed with added oleic acid

Row | SMILES | cell number change [%] | AC50 [1] | AC50 [2]
1 | COc1ccc(CCNC(=O)c2ccc(Cl)nc2)cc1 | -10.5 |  | 
2 | COc1ccc(F)cc1S(=O)(=O)NCCCn1ccnc1 | -16 |  | 
3 | N#CCC(=O)Nc1ccc(C(=O)OCC(=O)Nc2ccc3ccccc3c2)cc1 |  | 1.84 µM [rising, partial curve] | 
4 | Cc1nc2c(c(C)c1C#N)C(=O)c1ccccc1-2 | 5.41 |  | 
5 | O=C(O)c1cc(NC(=O)c2cccc(F)c2)cc(NC(=O)c2cccc(F)c2)c1 | -15.9 |  | 
6 | CSc1ncccc1C(=O)Nc1ccc2nc(C)sc2c1 | 7.12 | 0.0461 µM [rising, full curve, poor fit] | 
7 | COCCCN1CN(Cc2ccco2)CNC1=S | 4.91 |  | 
8 | CN(C)/C=N/c1nc2nccc(-c3cccc(Cl)c3)n2n1 |  | 0.13 µM [rising, full curve, poor fit] | 0.146 µM [rising, full curve, poor fit]
9 | C/C(=N\NS(=O)(=O)c1ccc(Br)cc1)c1cccs1 | -17.2 | 6.51 µM [falling, single point] | 
10 | COc1ccc(N2CCN(C(CNC(=O)c3cccc(Cl)c3)c3cccnc3)CC2)cc1 (stereo not given) | 2.05 | 0.164 µM [rising, full curve, poor fit] | 
11 | C=CCn1c(=O)n(C(=O)OCC)c2cc(Br)ccc21 |  | 25.9 µM [rising, partial curve] | 
12 | CCc1nnc(SCC(=O)Nc2nnc(C)s2)n1CC1CCCO1 (stereo not given) | -24.9 |  | 
13 | COCCNc1nnc(SCC(=O)c2c[nH]c3ccccc23)s1 | -16.7 | 25.9 µM [falling, partial curve, poor fit] | 
14 | COc1ccc(Cl)cc1NC(=O)COC(=O)CCc1cc(OC)c(OC)c(OC)c1 | 20.8 | 25.9 µM [rising, partial curve] | 3.66 µM [rising, full curve, poor fit]
15 | CN(CC(=O)Nc1ccc(N2CCOCC2)cc1)C(=O)CSc1ccc(Br)cc1 | -0.54 | 29.1 µM [falling, partial curve, poor fit] | 
16 | O=C(Nc1ccc(OCC(F)(F)C(F)F)cc1)c1ccncc1 | 25.9 |  | 
17 | Cc1ccc(C)c(NC(=S)/C(=C(\[O-])c2ccc(Cl)s2)[n+]2ccccc2)c1 | 69.4 |  | 
18 | O=c1cc(N2CCCCC2)c(-c2ccccc2)nn1Cc1cccc(Cl)c1 |  | 29.1 µM [falling, single point] | 
19 | CC(C)C(=O)Nc1cccc(NC(=S)NC(=O)c2ccc([N+](=O)[O-])cc2)c1 | -33.8 | 6.51 µM [falling, full curve] | 25.9 µM [falling, single point]
20 | Cc1cc(Nc2ccc(C(C)C)cc2)n2ncnc2n1 | 10 | 16.4 µM [rising, partial curve, poor fit] | 
21 | Cc1cccc(NC(=O)COC(=O)CCc2ccccc2)c1C | 21.7 | 14.6 µM [rising, single point] | 

Row | SMILES | cell number change [%] | AC50 [1] | AC50 [2]
22 | O=C(O)C1CC=CCC1C(=O)NNS(=O)(=O)c1ccccc1 (stereo not given) | -56.6 |  | 0.00517 µM [falling, full curve, poor fit]
23 | CCC(CC)C(=O)Nc1cccc(/C(C)=N/NC(=O)c2ccccc2Cl)c1 | 92.9 |  | 16.4 µM [rising, single point]
24 | COc1cc(Cl)c(S(=O)(=O)N2CC(C)OC(C)C2)cc1Cl (stereo not given) | 2.4 |  | 
25 | Cn1c(=O)cc(OCCCC(=O)N2CCN(c3ccccn3)CC2)c2ccccc21 |  | 0.259 µM [rising, full curve, poor fit] | 0.231 µM [rising, full curve, poor fit]
26 | COC(=O)c1scc(C)c1NC(=O)/C=C/C(=O)O | -48.3 | 29.1 µM [falling, single point] | 16.4 µM [falling, single point]
27 | CCc1ccc(C(=O)NN=C2CCCCCC2)s1 |  | 2.91 µM [rising, single point] | 
28 | COc1ccc(CCNC(=O)c2cnccn2)cc1 | -8.17 |  | 
29 | COc1ccc2cc(OCC(=O)NNC(=O)Nc3ccc(C(C)=O)cc3)ccc2c1 | 19.2 |  | 
30 | CCC(c1nnnn1C1CCCCC1)N(Cc1ccco1)Cc1cc2ccc(OC)cc2[nH]c1=O (stereo not given) | -42.5 | 0.259 µM [rising, partial curve] | 20.6 µM [falling, single point]
31 | CC(C)c1nc2scc(-c3ccc(Cl)cc3)c2c(=O)n1N | 25.5 | 29.1 µM [rising, single point] | 
32 | Cc1ccc(CCNC(=O)C2CCN(S(=O)(=O)N3CCCC3)CC2)cc1 | -20.4 | 3.66 µM [falling, partial curve] | 
33 | Cc1cccc(CS(=O)(=O)Cc2ccc(C(=O)NC3CCCCCC3)o2)c1 |  | 20.6 µM [falling, partial curve] | 
34 | Cn1nc(-c2ccc3c(c2)OCCO3)c2ccccc2c1=O | 52.6 | 29.1 µM [rising, partial curve, poor fit] | 
35 | COc1ccccc1CNc1cc(-c2ccccc2)ccc1OC | 10 | 0.164 µM [falling, full curve] | 0.13 µM [falling, full curve, poor fit]
36 | O=C(Cn1ccc(NC(=O)OCc2ccccc2)nc1=O)NCCCc1ccccc1 | -2.39 | 0.651 µM [falling, single point] | 
37 | CCCCCCCC(O)CC(CC1CCCCC1)C(=O)NN (stereo not given) | 19.6 |  | 
38 | C=CCSc1nnc2c(n1)OC(c1ccccn1)N(C(C)=O)c1ccccc1-2 (stereo not given) | -24.1 | 0.651 µM [falling, full curve, poor fit] | 0.206 µM [falling, full curve, poor fit]
39 | O=C(NC1CCCCC1)c1cccc(Cn2cc(Cl)cn2)c1 | 68 |  | 11.6 µM [rising, partial curve]
40 | CCCSc1ccc2nc(NC(=O)OC)[nH]c2c1 | -2.7 | 4.11 µM [falling, single point] | 
41 | COc1cc(CN(C)Cc2nc3cc(C(F)(F)F)ccc3c(=O)[nH]2)ccc1OC(F)F | -25.5 | 2.06 µM [falling, partial curve, poor fit] | 6.51 µM [falling, single point]
42 | O=C(O)c1ccc(N2CC3CC(C2)c2cccc(=O)n2C3)c(NC(=S)Nc2ccc(Br)cc2)c1 (stereo not given) | -19.1 |  | 

From compound 26 as far as 29, copied from above:
Row | SMILES | cell number change [%] | AC50 [1] | AC50 [2]
26 | COC(=O)c1scc(C)c1NC(=O)/C=C/C(=O)O | -48.3 | 29.1 µM [falling, single point] | 16.4 µM [falling, single point]
27 | CCc1ccc(C(=O)NN=C2CCCCCC2)s1 |  | 2.91 µM [rising, single point] | 
28 | COc1ccc(CCNC(=O)c2cnccn2)cc1 | -8.17 |  | 
29 | COc1ccc2cc(OCC(=O)NNC(=O)Nc3ccc(C(C)=O)cc3)ccc2c1 | 19.2 |  | 

Remaining list, next part

Row | SMILES | cell number change [%] | AC50 [1] | AC50 [2]
43 | CC(C)C[C@H]1CNC(=O)C(=O)N1C[C@H](C)NC(=O)Cc1ccccc1 | 11.3 |  | 
44 | CCCCc1ncc(CN2CCC(n3nccc3NC(=O)c3ccccc3OC)CC2)[nH]1 | 22.7 | 6.51 µM [falling, partial curve, poor fit] | 
45 | COc1cccc(-n2cnc(=O)c3cccnc32)c1 | 14.7 |  | 0.651 µM [rising, full curve, poor fit]
46 | NS(=O)(=O)c1ccc(C(=O)Nc2ccc(-c3nc4cccnc4s3)cc2)cc1 |  | 0.0731 µM [falling, full curve, poor fit] | 
47 | Cc1ccc(O)c(C(=O)c2cc(C#N)c(=O)n(C(C)c3ccccc3)c2)c1 (stereo not given) | -13.7 | 14.6 µM [falling, single point] | 
48 | CCOC(=O)c1cc2c(=O)[nH]ccc2nc1C | -27.1 | 23.1 µM [falling, single point] | 
49 | Cc1cc2c(c(=O)n1CCc1ccccc1)C(C(C)C)C(C#N)=C(N)O2 (stereo not given) | 116 | 1.3 µM [rising, full curve] | 1.3 µM [rising, full curve]
50 | Cc1cc(C(F)(F)F)c2sc(N)nc2n1 | -14.4 | 6.51 µM [falling, partial curve, poor fit] | 
51 | CCN=C(NCC)SC1CC(=O)N(c2ccccc2)C1=O (stereo not given) | 33.7 |  | 5.8 µM [rising, full curve, poor fit]
52 | Cc1c(NC(=O)COC(=O)c2ccccc2Cl)c(=O)n(-c2ccccc2)n1C | 12.5 | 16.4 µM [rising, single point] | 
53 | Cc1cc2oc(=O)cc(CN3CCCc4ccccc43)c2cc1C | -26.2 | 14.6 µM [falling, single point] | 
54 | NNC(=O)c1nnn(-c2nonc2N)c1-c1cccs1 | 18.7 | 0.259 µM [rising, full curve, poor fit] | 
55 | O=S(=O)(c1ccccc1)N1CC=C(c2ccccc2)CC1 | 32 | 4.11 µM [rising, full curve, poor fit] | 8.2 µM [rising, partial curve, poor fit]
56 | CCCS(=O)(=O)N1CCCC(C(=O)NCCCN(CC)c2cccc(C)c2)C1 (stereo not given) | 15.9 |  | 
57 | O=C(NS(=O)(=O)c1ccc(Cl)s1)c1ccccc1 | 8.29 |  | 
58 | Oc1[nH]c2ccccc2c1N=NC(=S)NCCc1ccccc1 | 27.4 | 6.51 µM [rising, single point] | 6.51 µM [rising, single point]
59 | Cc1ccc(-c2nc(N/N=C/c3ccncc3)c3ccccc3n2)cc1 | 151 | 3.26 µM [falling, single point] | 29.1 µM [rising, single point]
60 | O=C(c1ccccc1)N1CCN(C(=O)c2nn3c(C(F)(F)F)cc(-c4ccco4)nc3c2Br)CC1 | -1.9 | 6.51 µM [rising, single point] | 
61 | CN(C)CCCNC(=O)CCc1ncc(C(F)(F)F)cc1Cl | -37.2 | 3.66 µM [falling, full curve] | 
62 | O=C(O)COC(=O)C1C(c2ccccc2)C(C(=O)O)C1c1ccccc1 (stereo not given) | 27.6 | 0.092 µM [rising, full curve, poor fit] | 0.411 µM [rising, full curve, poor fit]
63 | CC(C)NC(=O)Cn1c(SCC(=O)N2c3ccccc3CC2C)nc2ccccc21 (stereo not given) |  |  | 0.58 µM [falling, single point]
